# PubChem BioAssay AID602196, INSERM – 2012
# Screen: 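Modifiers of cisplatin sensitivity in A549 cells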
# Cells: human A549 lung cancer cells
# Reagents: siRNA pair against human genes
# Timing: 48 h transfection before cisplatin; time from cisplatin to read-out not stated
# Treatment: cisplatin at a dose killing half of control-siRNA cells; exact dose and duration not given
# Measurement: 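Shift in cisplatin death relative to control siRNA, from -50 (all cells die) to +50 (no cells die); siRNAs harmful on their own scored 0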
# Scale: two-siRNA summed score (-2 to +2): higher = both siRNAs protect from cisplatin killing; -2 means both sensitise; mean protection from cisplatin (shift in death) and protection from cisplatin (shift in death), siRNA C: higher = protection from cisplatin killing
# Active means: 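siRNAs harmful alone (LDH or WST-1) get 0; others get +1 for less and -1 for more cisplatin killing; genes are active when the two siRNAs give the same sign, summing to ±2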
# Meaning of the calls: active = both siRNAs shift cisplatin killing the same way; inactive = no consistent shift, or siRNA harmful alone
# This is a random part of about 23,000 reagents tested. Over the whole deposit, 455 (2%) got an active call. 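Active includes both protection and sensitisation; some change values fall well beyond the stated -50 to +50 range.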 The numbers tell different reagents against one gene apart. Further read-outs or replicates are left out here. Not stated in the record: the amount of reagent.
gene knocked down,reagent no.,two-siRNA summed score (-2 to +2),mean protection from cisplatin (shift in death) (%),"protection from cisplatin (shift in death), siRNA C (%)",activity call
SULF1,1,-1,-24.8,-18.3,inactive
LCNL1,1,1,2.2,-14.1,inactive
ITIH1,1,0,-7.7,-3.3,inactive
F13B,1,0,13.3,-4.6,inactive
LOC338586,1,0,6.7,6.4,inactive
GIMAP5,1,0,-2.9,0.5,inactive
LOC401499,1,0,17,14.6,inactive
ITGA5,1,0,2,-8.9,inactive
LOC391847,1,0,4.2,9.6,inactive
SPART,1,0,13,21.6,inactive
PDZD7,1,0,1.1,-7.1,inactive
KLHL20,1,0,0.2,5.4,inactive
ODAPH,1,0,4,-4.8,inactive
USP46,1,1,6.8,-8.8,inactive
LOC401054,1,1,11.7,23.1,inactive
TMEM201,1,1,6.6,10.6,inactive
LOC340549,1,0,0.6,10.6,inactive
LINC00937,1,0,-0.8,0,inactive
SSBP4,1,0,6.2,6.4,inactive
LIX1L,1,0,-1.4,-6.1,inactive
LOC388508,1,0,12.5,15.5,inactive
TCEAL2,1,0,5,4.5,inactive

The list goes on (6 carried over from the part before).
gene knocked down,reagent no.,two-siRNA summed score (-2 to +2),mean protection from cisplatin (shift in death) (%),"protection from cisplatin (shift in death), siRNA C (%)",activity call
LOC340549,1,0,0.6,10.6,inactive
LINC00937,1,0,-0.8,0,inactive
SSBP4,1,0,6.2,6.4,inactive
LIX1L,1,0,-1.4,-6.1,inactive
LOC388508,1,0,12.5,15.5,inactive
TCEAL2,1,0,5,4.5,inactive
CCL4L1,1,0,2,7.4,inactive
GABRA2,1,0,-4.1,-2.2,inactive
LINC01622,1,0,5.2,4,inactive
LOC387753,1,0,27.6,25.5,inactive
SRGN,1,0,22.3,-0.4,inactive
ASCL3,1,0,4.6,8.2,inactive
OSTC,1,0,4.1,-2.1,inactive
LOC401225,1,0,3.8,12,inactive
LOC387690,1,0,6.1,7.2,inactive
CLEC3A,1,0,1.8,4.5,inactive
ADAMTSL5,1,0,-2.9,-2.7,inactive
HNRNPH2,1,0,-0.2,1.6,inactive
FAM13B,1,0,3,7.3,inactive
BACH1,1,0,14.6,17.2,inactive
HS6ST1,1,1,19.8,33.2,inactive
LOC441136,1,0,4.8,1.3,inactive
BMP1,1,-1,-9.3,-4.8,inactive
ETF1,1,1,21.6,34,inactive
B2M,1,1,12.6,19.2,inactive
LOC389050,1,1,12.8,10.5,inactive
MRPL32,1,0,-9.2,-9.5,inactive
LOC440864 (retired record),1,1,13.9,19.4,inactive
SATL1,1,1,9.2,1.1,inactive
TM4SF5,1,-1,-4.1,-15.6,inactive
VN1R1,1,0,16.7,3.6,inactive
ZNF57,1,0,4,9.6,inactive
ATXN1,1,0,6.4,11,inactive
LOC440684,1,1,9.4,21.9,inactive
PPP1R12B,1,0,2.2,-2.4,inactive
KCNA4,1,0,1.5,-0.4,inactive
NTHL1,1,0,-4.4,-18.9,inactive
IRX2,1,0,15.9,8.7,inactive
ARID5A,1,0,-11.2,-12.5,inactive
S1PR3,1,-2,-19.2,-15.4,active
S1PR3,2,0,8.8,6.4,inactive
